Test results: PubChem BioAssay AID328 (DTP/NCI, 2004)
The list shows only some results of the screen, not a fair sample: it is rich in T/C values a quarter to a half above the control, in often repeated tests (any T/C) and in doses without a T/C. Other doses and runs of a compound stand elsewhere. T/C gives the treated animals as a percentage of the vehicle group. Some doses have a count of surviving animals in place of a T/C: the source holds a T/C of zero for them, seemingly a mark for toxic or unscored doses. Some doses without a T/C left all or most animals alive at the check, yet need not have been tolerated: survival well below the control is almost never listed, so the zero probably covers shortened survival too. Counts of survivors are from the toxicity check (mostly the fifth day) where no day follows; animals may have died later. Schedules are NCI's codes, taken here to give the interval after Q, in days (D) or hours (H), and the number of doses after X. Where survival is the endpoint, the PubChem record calls one and a half times the control and up active, and a quarter to a half above the control has no call in these data; cut-offs in other NCI protocols can differ. Some T/C values are followed by the survivors on the day toxicity was checked, most often the fifth; without a count, all were alive then.

Test system: BDF1 mice, P388 leukemia ip, median survival T/C
Experiment: NCI In Vivo Anticancer Drug Screen. Data for tumor model P388 Leukemia (intraperitoneal) in B6D2F1 (BDF1) mice
Conditions: T/C endpoint: median survival time, higher T/C = longer survival
Procedure, shortened: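 Survival ratio, drug arm over vehicle arm, in mice with a transplanted tumour.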

[1] = dose: 100.0 mg/kg/injection, schedule: Q01DX009 (ip), vehicle: Klucel (hydroxypropylcellulose) (HPC)
[2] = dose: 100.0 mg/kg/injection, schedule: Q01DX009 (ip), vehicle: saline
[3] = dose: 200.0 mg/kg/injection, schedule: Q01DX009 (ip), vehicle: saline

Compound: O=CC1CO1 (stereo unspecified)
- T/C (dose: 50.0 mg/kg/injection, schedule: Q01DX009 (ip), vehicle: saline sonified): 136 % of control [5 of 6 alive]
- T/C (dose: 50.0 mg/kg/injection, schedule: Q01DX009 (ip), vehicle: saline): 125 % of control
- survivor count (dose: 75.0 mg/kg/injection, schedule: Q01DX009 (ip), vehicle: saline sonified): 3 of 6
- T/C (dose: 75.0 mg/kg/injection, schedule: Q01DX009 (ip), vehicle: saline): 125 % of control

Compound: CC(=O)c1c(C)c([N+](=O)[O-])c(C(C)(C)C)c([N+](=O)[O-])c1C
- survivor count (dose: 50.0 mg/kg/injection, schedule: Q01DX009 (ip), vehicle: Klucel (hydroxypropylcellulose) (HPC)): 3 of 3
- T/C [1]: 133 % of control
- survivor count [1]: 3 of 3
- T/C (dose: 200.0 mg/kg/injection, schedule: Q01DX009 (ip), vehicle: Klucel (hydroxypropylcellulose) (HPC)): 133 % of control
- survivor count (dose: 400.0 mg/kg/injection, schedule: Q01DX009 (ip), vehicle: Klucel (hydroxypropylcellulose) (HPC)): 2 of 3

Compound: O=C(NC(CSC(c1ccccc1)(c1ccccc1)c1ccccc1)C(=O)O)OCc1ccccc1 (stereo unspecified)
- T/C [2]: 125 % of control
- T/C [3]: 130 % of control

Compound: CC1(C)N=C(N)N=C(N)N1c1cccc(CCCCc2ccc(Cl)c(S(=O)(=O)F)c2)c1
- T/C (dose: 3.5 mg/kg/injection, schedule: Q01DX009 (ip), vehicle: saline): 130 % of control
- T/C (dose: 6.25 mg/kg/injection, schedule: Q01DX009 (ip), vehicle: saline): 129 % of control
- T/C (dose: 7.0 mg/kg/injection, schedule: Q01DX009 (ip), vehicle: saline): 140 % of control
- T/C (dose: 12.5 mg/kg/injection, schedule: Q01DX009 (ip), vehicle: saline with Tween-80): 145 % of control
- T/C (dose: 25.0 mg/kg/injection, schedule: Q01DX009 (ip), vehicle: saline with Tween-80): 145 % of control
- T/C (dose: 28.0 mg/kg/injection, schedule: Q01DX009 (ip), vehicle: saline): 140 % of control
- survivor count (dose: 50.0 mg/kg/injection, schedule: Q01DX009 (ip), vehicle: saline with Tween-80): 3 of 6

Compound: CCC1C2CC3C4N(C)c5ccc(Br)cc5C45CC(C2C5O)[N+]3(CC(O)CN2CCCCC2)C1O (stereo unspecified)
- survivor count [2]: 2 of 6
- survivor count [3]: 0 of 6

Compound: CN=Cc1ccc([N+](=O)[O-])cc1
- survivor count (dose: 400.0 mg/kg/injection, schedule: Q01DX001 (ip), vehicle: Klucel (hydroxypropylcellulose) (HPC)): 6 of 6
